Measured values as given in paper PMC3984710.
Results are given in words; binding and its absence hold for the method and conditions named. Some entries that bind do so weakly or less than the wild type. Tags and fused reporters may be left off the sequences shown.

The chains behind the UniProt entries cited, without tags or fusion partners. Where a name states a change or a piece, a line headed by the entry shows the natural chain unless it says otherwise. A line that says so, or that is headed by a name, gives the form on record, which may keep a tag or linker.
ArntΔQ (Arnt deleted of its transactivation domain, amino acid 1–618) fused to the GAL4 DNA-binding domain (P27540, form named): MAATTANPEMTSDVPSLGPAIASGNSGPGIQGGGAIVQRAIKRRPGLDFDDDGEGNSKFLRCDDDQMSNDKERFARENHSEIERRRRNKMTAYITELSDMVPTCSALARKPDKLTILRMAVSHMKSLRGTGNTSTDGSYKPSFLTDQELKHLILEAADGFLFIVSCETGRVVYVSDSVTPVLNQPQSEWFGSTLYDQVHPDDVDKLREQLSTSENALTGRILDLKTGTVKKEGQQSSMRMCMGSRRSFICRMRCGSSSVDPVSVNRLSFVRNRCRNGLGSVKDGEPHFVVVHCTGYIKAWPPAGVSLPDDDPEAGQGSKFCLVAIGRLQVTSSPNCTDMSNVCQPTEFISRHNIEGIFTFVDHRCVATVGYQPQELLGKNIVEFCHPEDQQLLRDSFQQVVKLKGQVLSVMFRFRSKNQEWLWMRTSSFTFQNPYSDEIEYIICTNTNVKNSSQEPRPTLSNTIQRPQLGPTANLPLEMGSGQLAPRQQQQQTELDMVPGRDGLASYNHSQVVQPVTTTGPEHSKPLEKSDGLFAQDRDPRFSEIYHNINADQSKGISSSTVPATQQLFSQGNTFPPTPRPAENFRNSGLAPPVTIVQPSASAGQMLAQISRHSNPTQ

Molecular target: ArntΔQ (Arnt deleted of its transactivation domain, amino acid 1–618) fused to the GAL4 DNA-binding domain (human) (UniProt P27540)
Experiment: two-hybrid; Matchmaker GAL4 Two-hybrid System 3, S. cerevisiae AH109; ArntΔQ on the GAL4 DNA-binding domain (pGBKT7) as bait, Y1 mouse cDNA library on the GAL4 activation domain (pGADT7); growth at high stringency on plates lacking adenine, leucine, tryptophan and histidine; data not shown

B1: C-terminal part of Miz-1 (aa 470–794) fused to the GAL4 activation domain (domain or fragment, UniProt Q60821 470-794)
chain: CGKQFTTSGNLKRHLRIHSGEKPYVCTHCQRQFADPGALQRHVRIHTGEKPCQCVICGKAFTQASSLIAHVRQHTGEKPYVCERCGKRFVQSSQLANHIRHHDNIRPHKCSVCSKAFVNVGDLSKHIIIHTGEKPYLCDKCGRGFNRVDNLRSHVKTVHQGKAGIKILEPEEGGEVSVVTVDDMVTLATEALAATAVTQLTVVPVGAAVTADETEVLKAEISKAVKQVQEEDPNTHILYACDSCGDKFLDANSLAQHVRIHTAQALVMFQTDADFYQQYGPGSTWPAGQMLQAGELVFRPRDGTEGQPTLAESPPTAPDCLPPAE
For B1, the binding was “binds”.
